For one test, the system named is AP1. Put plainly: AP1-dependent transcription, AP1 luciferase reporter in CCRF-CEM cells activated with PI. The format is cell-based. An excerpt:
(§1) Reporter plasmids were transfected into CCRF-CEM cells using nucleofection (Nucleofector; AMAXA, Germany). Reporter plasmids expressing firefly luciferase (Luc) were purchased from Stratagene. pNFAT-Luc contains four NFAT binding sites; pGRE-Luc contains four GRE sites, and pAP1-Luc contains seven AP1 binding sites. The NFκB luciferase reporter, p(IL6κB)3-50hu.IL6-luc+, contains three NFκB sites and was a generous gift of Dr. De Bosscher (University of Ghent, Belgium). 10^7 cells suspended in 100 μL Amaxa ‘R’ Cell-line solution were transferred to a cuvette. One μL (1 μg/μL) of solution containing reporter plasmid (firefly luciferase) and control plasmid (pRL-TK-Renilla) (Renilla luciferase) (Promega) at a ratio of (10:1) were added to the cell suspension. […] After transfection the cells were suspended in 200 μL medium, allowed to recover for an hour, equal volume of medium containing 2× drugs were added and incubated at 37° C. for 30 min. Then the cells were stimulated with PI for another five hours. The luciferase activity of each of plasmid and control Renilla-plasmid were measured as per the procedure in Promega Luciferase assay kit.
A general note: A reporter such as luciferase makes a cellular process visible.

Test [1] concerns NFκB. The test is described as follows: NFκB-dependent transcription, NFκB luciferase reporter in CCRF-CEM cells activated with PI. Conditions: Homo sapiens, at high concentration. The format is cell-based.
Source text: as §1
NFκB-dependent transcription was measured by transient transfection of an NFκB reporter plasmid into CCRF-CEM cells and subsequent activation with PI.

In test [2] the test system is NFκB. Put plainly: cells. Conditions: Homo sapiens, CCRF-CEM, read-out: IC50, inhibition of NFκB translocation.
The next test has as its system NFAT. Put plainly: NFAT-dependent transcription, NFAT luciferase reporter in CCRF-CEM cells activated with PI. The format is cell-based. Conditions: Homo sapiens, read-out: IC50, inhibition of PI-stimulated NFAT transcription.
Source text: as §1

Structures are written as SMILES. pIC50: −log10 of the molar value.

1 molecule from patent publication US20050271661A1, “Methods and reagents for the treatment of immunoinflammatory disorders” (priority 2004, published 2005) can be followed below.

A word on the pIC50: it is the negative decadic logarithm of the IC50, by convention in mol/L.

Regarding `Clc1ccc2c(c1)C(N1CCNCC1)=Nc1ccccc1O2` [amoxapine], the pIC50 was 4.52 to 4.70 in the test with AP1, 4.70 with NFκB [1], 4.70 with NFκB [2] and 5.70 in the test with NFAT.
